Source: the supplement of paper PMC12067093, “Discovery and optimisation of a covalent ligand for TRIM25 and its application to targeted protein ubiquitination” (Chemical Science, 2025)
The list shows a part of the results.

Compound: CC1Cc2ccccc2N1C(=O)C1CCCN(C1)C(=O)CCl (mixture of isomers) [TRIM25 ligand 11 (diastereomer mixture)]
Test: probe-labelled cysteine peptide fold change vs DMSO (competition) (log2 fold change); higher = less target engagement (more negative = stronger competition)
Details: THP-1, incubation time: 4 h
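Also: competitive chemoproteomic profiling in live THP-1 cells with an iodoacetamide desthiobiotin (IA-DTB) probe, comparing probe-labelled peptide intensities in compound-treated cells against DMSO-treated controls.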

Target | probe-labelled cysteine peptide fold change (10 µM) | probe-labelled cysteine peptide fold change (50 µM)
DPH5_Q9H2P9_219_GEEPAVTEETLCVGLAR (UniProt Q9H2P9) | 0.0852 | -0.16
DYNC1H1_Q14204_633_VQYPQSQACK (UniProt Q14204) | 0.161 | 0.153
DTX3L_Q8TDB6_577_CKHEFCAPCINK (UniProt Q8TDB6) | -0.0902 | -0.26
EAF2_Q96CJ1_29_CAFHTVR (UniProt Q96CJ1) | 0.111 | 0.0585
DOCK5_Q9H7D0_1532_ISNCVQQHAWDR (UniProt Q9H7D0) | -0.07 | -0.0262
DPP9_Q86TI2_225_RLTFCHQGLSNVLDDPK (UniProt Q86TI2) | 0.134 | 0.136
DNMT1_P26358_353+356_CIQCGQYLDDPDLK (UniProt P26358) | 0.159 | 0.177
DRG2_P55039_198_KGGGISFNSTVTLTQCSEK (UniProt P55039) | 0.224 | 0.187
DOHH_Q9BU89_242_HECAEALGAIAR (UniProt Q9BU89) | -0.0923 | 0.13
DPYSL2_Q16555_179_FQLTDCQIYEVLSVIR (UniProt Q16555) | 0.0597 | 0.143
DYNC1H1_Q14204_867_SLETCMYDHK (UniProt Q14204) | 0.0773 | 0.0115
EAPP_Q56P03_262_AETDVEEIYHPVMCTECSTEVAVYDKDEVFHFFNVLASHS (UniProt Q56P03) | -0.0635 | -0.0165
DTYMK_P23919_31_KLVEALCAAGHR (UniProt P23919) | -0.0503 | -0.0145
DUS1L_Q6P1R4_169_AGCQLLTVHGR (UniProt Q6P1R4) | 0.0294 | -0.233
DOP1B_Q9Y3R5_70_LAQCLHPALPSGVHLK (UniProt Q9Y3R5) | 0.262 | 0.136
DOCK6_Q96HP0_510_IDISPAPENPHFCLSPELLHIK (UniProt Q96HP0) | -0.0429 | 0.0224
DNMT1_P26358_580_HAQFVVEQVESYDEAGDSDEQPIFLTPCMR (UniProt P26358) | 0.0642 | 0.604
DOK2_O60496_132_QSRPCMEENELYSSAVTVGPHK (UniProt O60496) | 0.0669 | -0.283
DYNLT3_P51808_8_HCDEVGFNAEEAHNIVK (UniProt P51808) | -0.112 | -0.158
DUT_P33316-2_3_PCSEETPAISPSK (UniProt P33316) | -0.149 | -0.196
DNMT3A_Q9Y6K1_818_LELQECLEHGR (UniProt Q9Y6K1) | 0.0266 | 0.103
DUT_P33316_222_IAQLICER (UniProt P33316) | -0.00468 | 0.152
EARS2_Q5JPH6_140_TGAAYPCFCSPQR (UniProt Q5JPH6) | -0.0787 | 0.0707
EBNA1BP2_Q99848_56_QCLAEFK (UniProt Q99848) | 0.0622 | 0.00848
DOP1B_Q9Y3R5_2199_WAFIPEVDTEGPAFLSDVEENHQECKPHTVR (UniProt Q9Y3R5) | 0.131 | -0.0631
EARS2_Q5JPH6_411_QGHICR (UniProt Q5JPH6) | -0.0604 | 0.163

Target | probe-labelled cysteine peptide fold change (10 µM) | probe-labelled cysteine peptide fold change (50 µM)
DUS3L_Q96G46_315_LYLAPLTTCGNLPFRR (UniProt Q96G46) | -0.243 | -0.253
DYNC1H1_Q14204_4216_SACDTVDTWLDDTAK (UniProt Q14204) | -0.0825 | 0.0148
DTWD2_Q8NBA8_252_NNYIQETLLRPLQALCSFQLQHGAQIR (UniProt Q8NBA8) | -0.172 | -0.484
DUSP11_O75319_199_LIGVHCTHGLNR (UniProt O75319) | 0.196 | 0.0218
DNMT1_P26358_1339_ACQLSVVVDDK (UniProt P26358) | 0.127 | -0.121
DPYSL2_Q16555_133_SCCDYSLHVDISEWHK (UniProt Q16555) | 0.131 | -0.000105
DOCK8_Q8NF50_391_LQAESFCQR (UniProt Q8NF50) | -0.00954 | 0.0348
DSTN_P60981_39_AVIFCLSADKK (UniProt P60981) | -0.0635 | -0.0141
DUSP27_Q5VZP5_81_ADAECPGMLESAEQLLVEDLYNR (UniProt Q5VZP5) | -0.394 | -0.249
DNPH1_O43598_26_GEPGRPALYFCGSIR (UniProt O43598) | -0.11 | -0.123
DOCK11_Q5JSL3_492_VLQGNITHCAEPYIK (UniProt Q5JSL3) | 0.0526 | -0.0942
DYNLT1_P63172_93_NGAGLHTASSCFWDSSTDGSCTVR (UniProt P63172) | 0.105 | 0.0583
DNMT1_P26358_1485_ACDPAAR (UniProt P26358) | 0.102 | 0.0438
DUSP27_Q5VZP5_912_SNSQKPETDTCSSLAVCDHYASGSR (UniProt Q5VZP5) | 0.0943 | -0.328
DOCK8_Q8NF50_143_NQGSPEICGFK (UniProt Q8NF50) | -0.0851 | -0.363
DSN1_Q9H410_65_GGNCDLSHQER (UniProt Q9H410) | 0.0986 | -0.0321
DOCK8_Q8NF50_1471_VLVNSLNCDQSTTYLTHCFATLR (UniProt Q8NF50) | 0.253 | 0.308
DYNC1H1_Q14204_2454+2466_CLGSLFSMLHQACR (UniProt Q14204) | -0.0399 | 0.0587
DOCK5_Q9H7D0_859_LNCMTK (UniProt Q9H7D0) | 0.0249 | -0.00631
DPF2_Q92785_333_CCNICGTSENDDQLLFCDDCDR (UniProt Q92785) | -0.0533 | 0.0542
DNPEP_Q9ULA0_447_EMACTTGVLQTLTLFK (UniProt Q9ULA0) | -0.0246 | 0.0396
DNPH1_O43598_117_ILCLFRPQSGR (UniProt O43598) | -0.158 | -0.121
DYRK1A_Q13627_551_HSGGHFTAAVQAMDCETHSPQVR (UniProt Q13627) | 0.068 | -0.236
DYNC1H1_Q14204_3573_WQASSLPADDLCTENAIMLK (UniProt Q14204) | -0.0171 | -0.286
DOCK8_Q8NF50_121_TLQPSLPEEGVELDPHVRDCVQTYIR (UniProt Q8NF50) | -0.199 | -0.228
DUSP28_Q4G0W2_86_VPVFDDPAEDLLAHLEPTCAAMEAAVR (UniProt Q4G0W2) | -0.0654 | -0.0111

Target | probe-labelled cysteine peptide fold change (10 µM) | probe-labelled cysteine peptide fold change (50 µM)
DOK2_O60496_65_LSDCLR (UniProt O60496) | -0.179 | -0.0172
DUSP3_P51452_124_VLVHCR (UniProt P51452) | 0.0145 | 0.0241
DUS3L_Q96G46_171+177_CPYGVTCR (UniProt Q96G46) | 0.00831 | -0.35
DTYMK_P23919_117_ENFSLDWCK (UniProt P23919) | 0.0467 | 0.0147
DOK1_Q99704_115_SHLLAADAPSSAAWVQTLCR (UniProt Q99704) | 0.05 | -0.0431
DPH7_Q9BTV6_377_GASELPTPCHECR (UniProt Q9BTV6) | 0.0731 | 0.019
DTWD2_Q8NBA8_220_CLSTLECAAVALSILEK (UniProt Q8NBA8) | -0.0977 | 0.0807
DOCK2_Q92608_41_IQETCGDWYR (UniProt Q92608) | 0.0325 | -0.049
DUT_P33316-2_3_PCSEETPAISPSKR (UniProt P33316) | -0.159 | -0.178
DOK3_Q7L591_402_ASGPPGNEHLYENLCVLEASPTLHGGEPEPHEGPGSR (UniProt Q7L591) | 0.108 | -0.105
DUS3L_Q96G46_408_KGGGCALMNR (UniProt Q96G46) | 0.0614 | -0.163
DOCK8_Q8NF50_939_MSYYCSGSSDAPSSPAAPRPASK (UniProt Q8NF50) | -0.143 | -0.265
DUSP11_O75319_117_KLAPEECFSPLDLFNK (UniProt O75319) | -0.0108 | 0.00877
DTYMK_P23919_31_LVEALCAAGHR (UniProt P23919) | 0.136 | 0.038
DPYSL2_Q16555_179_DRFQLTDCQIYEVLSVIR (UniProt Q16555) | 0.232 | 0.128
DNMT3A_Q9Y6K1_911_EYFACV (UniProt Q9Y6K1) | -0.106 | -0.0101
DUS3L_Q96G46_396_TVEVDFVDINVGCPIDLVYK (UniProt Q96G46) | 0.0383 | -0.0463
DYNC1I2_Q13409_331_TTPEYVFHCQSAVMSATFAK (UniProt Q13409) | 0.08 | 0.0525
DOCK2_Q92608_1234_DLHLDCDNYTEAAYTLLLHTWLLK (UniProt Q92608) | 0.384 | 0.328
DTX3L_Q8TDB6_159_AYITTLCPSIR (UniProt Q8TDB6) | -0.0664 | -0.172
DRG2_P55039_319_KGASVEHVCHR (UniProt P55039) | 0.144 | 0.0899
DOK3_Q7L591_323_LPELTRPQPCPLPR (UniProt Q7L591) | 0.463 | -0.185
DOCK10_Q96BY6_936_CHEEQLDHSVQSYIK (UniProt Q96BY6) | -0.0686 | 0.0713
EAF2_Q96CJ1_98_ECILIINHDTGECR (UniProt Q96CJ1) | -0.0897 | 0.01
DPP7_Q9UHL4_332+338_LYHSCADPTGCGTGPDAR (UniProt Q9UHL4) | 0.0791 | 0.205
DUSP23_Q9BVJ7_108_TGTMLACYLVK (UniProt Q9BVJ7) | -0.0836 | 0.174
